Results are given in words; binding and its absence hold for the method and conditions named. Some entries that bind do so weakly or less than the wild type.
Target: hypo-IL-18 (IL-18 tethered to IL-18BP by a flexible linker with a TEV site, 6xHis) (human)
Experiment: BLI, binding to hypo-IL-18

binding: binds
B1: SA07a (antibody, human IgG1, V domains shown)
VH: EVQLQQSGPELVKPGASVKISCKASGYTFTDYYMNWVKQSHGKSLEWIGDINPNNGGTSYNQKFKGKATLTVDKSSNTAYMELRSLTSEDSAVYYCAREGVYSNYGGYFDYWGQGTTLTVSS
VL: QIVLTQSPALMSASPGEKVTMTCSASSSVSYMYWYQQKPRSSPKPWIYLTSNLASGVPARFSGSGSGTSYSLTISSMEAEDAATYYCQQWSSNPPTFGSGTKLEIK
